For this test, the target named is G. lamblia GlcN6P deaminase with C-terminal His6 fusion (GlmNagB-HisC) (Giardia lamblia) (UniProt O97439). The test can be described thus: native gel or EMSA; native PAGE, NativePAGE system with Novex 4-16 % Bis-Tris gels; fractions collected from SEC; both purified.

These are yes or no findings as the source states them, for the method shown. Some entries that bind do so weakly or less than the wild type. Where a sequence is shown, tags or fusion partners need not be part of it.

B1: G. lamblia GlcN6P deaminase with C-terminal His6 fusion (GlmNagB-HisC) (enzyme, Giardia lamblia, UniProt O97439 1-266, looked up)
chain: MPSIHVSKCADPAIKLAHRIAEVVRSKPNCVLGLATGSTPIPVYQELARLHREEGLDFSQVRTFNLDEYAGLPPTHDQTYRFFMEEHLFSKVNIKPENVHFLNGMASDYEKECERYEQELKAIGPCDVWLLGIGHNGHIAFNEPGSPRDSRTRVVCLTQSTIDANARFFGNDKSKVPTKALSVGIATIMESREILLLATGESKREAVTKSVKGKCETHCPASFLHEHPHCRFYVDMDAGKVVDNTCCQATNQASCCGSTSCHAAKA
notes: glucosamine-6-phosphate deaminase of Giardia lamblia, GPI1 (GN6PI) gene cloned from strain MR4; forward primer from the start ATG, reverse primer adds six His codons after the last codon and then the stop; calculated mass 30.2 kDa with the tag; pETTopo-GlmNagB-HisC; hexaHis stands directly at the C-terminus; source: E. coli BL21(DE3) pLysS, purified (Ni2+-IDA agarose); not shown: His6, …
Take B1: the binding entry was “binds”.
